According to patent US6169076A, “P-Boronophenylalanine complexes with fructose and related carbohydrates and polyols” (Glcosyn Pharmaceuticals, Inc., priority 1999, dated 2001):
At least one read-out could not be matched to a standard name with certainty.

Assay: Complex formation constants of p-BPA with carbohydrates and polyols, by integration of aryl protons in the 1H NMR spectrum (D2O, pH buffered at 7.4)
Assay type: physicochemical
Conditions: L-p-BPA, footnote b: estimated value
Excerpt: The ratio of free p-BPA to p-BPA:carbohydrate complex can be determined by integration of the aromatic protons resonances (p-BPA, 7.73 and 7.33 ppm; p-BPA-carbohydrate complex, 7.5 and 7.2 ppm) in the ^1 H NMR spectrum using D2 O buffered to physiological pH as the solvent. A minimum of five measurements for each carbohydrate at various concentrations and p-BPA:carbohydrate ratios were taken, and the equilibrium constant calculated (Table 1 and Table 2). Likewise, complex formation constants for p-BPA and some polyols have been calculated (Table 3).
^a All values were determined for L-p-BPA by integration of aryl
protons in the ^j H NMR spectrum (D2 O, pH buffered at 7.4).
^a All values were determined for L-p-BPA by intergration of aryl
protons in the ^l H NMR spectrum (D2 O, pH buffered at 7.4).
The strong correspondence between the NMR data obtained for the l-p-BPA-fructose complex at physiological pH and one of the complexes (e.g., as observed for p-tolylboronic acid with fructose at pD 11-12) was further investigated by a systematic study of the binding ability of fructose-containing disaccharides (Table 2). […] However, the presence of the added 4-O-glucosyl or galactosyl group had no positive effect on binding either. […]

## OC[C@H](O)[C@@H](O)CO (relative stereo) [D,L Threitol]
  log Keq (complex formation constant, polyols), estimated value: 1.3
